{"source": "PubChem BioAssay AID1259254 (NCATS, 2017)", "test": "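Gene knock-downs that lead to re-replication, shown by excess G2 DNA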 (primary screen)", "cells": "human HCT116 colorectal cancer cells", "knock-down reagent": "single siRNA against human genes", "time to read-out": "3 days", "measured": "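Imaged Hoechst DNA stain sorts each cell into a cycle phase by DNA amount; per plate, G2 fraction set to 0% for non-targeting and 100% for GMNN siRNA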", "scale": "G2 robust z-score and G2 cells, % of GMNN control: higher = more G2 cells, more excess DNA replication", "active means": "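Active siRNAs have a G2 robust z of 5 or more median absolute deviations over the median, which in these data means about 38% or higher of GMNN control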", "note": "In all, the deposit lists about 59,000 reagents; below is an unselected part. About 1,550 of them (2.6%) were called active. 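G2 share is only a proxy for re-replication; each gene was hit by three separate siRNAs, and active genes were retested.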 The numbers tell different reagents against one gene apart. Further read-outs or replicates are left out here. No sequences are given here. Not given: the amount of reagent."}
{"target": "ALDH3B2 (GeneID 222)", "siRNA no.": 1, "G2 robust z-score": 0.483, "G2 cells, % of GMNN control": 6.36, "call": "inactive"}
{"target": "ALDH3B2 (GeneID 222)", "siRNA no.": 2, "G2 robust z-score": 1.42, "G2 cells, % of GMNN control": 13, "call": "inactive"}
{"target": "ALDH3B2 (GeneID 222)", "siRNA no.": 3, "G2 robust z-score": -1.28, "G2 cells, % of GMNN control": -6.02, "call": "inactive"}
{"target": "ABCA13 (GeneID 154664)", "siRNA no.": 1, "G2 robust z-score": 1.93, "G2 cells, % of GMNN control": 16.5, "call": "inactive"}
{"target": "ABCA13 (GeneID 154664)", "siRNA no.": 2, "G2 robust z-score": -0.147, "G2 cells, % of GMNN control": 1.94, "call": "inactive"}
{"target": "ABCA13 (GeneID 154664)", "siRNA no.": 3, "G2 robust z-score": 1.75, "G2 cells, % of GMNN control": 15.3, "call": "inactive"}
{"target": "GSPT2 (GeneID 23708)", "siRNA no.": 1, "G2 robust z-score": -1.16, "G2 cells, % of GMNN control": -5.17, "call": "inactive"}
{"target": "GSPT2 (GeneID 23708)", "siRNA no.": 2, "G2 robust z-score": 0.196, "G2 cells, % of GMNN control": 4.35, "call": "inactive"}
{"target": "GSPT2 (GeneID 23708)", "siRNA no.": 3, "G2 robust z-score": 2.19, "G2 cells, % of GMNN control": 18.4, "call": "inactive"}
{"target": "TAS2R3 (GeneID 50831)", "siRNA no.": 1, "G2 robust z-score": -0.302, "G2 cells, % of GMNN control": 0.843, "call": "inactive"}
{"target": "TAS2R3 (GeneID 50831)", "siRNA no.": 2, "G2 robust z-score": -0.146, "G2 cells, % of GMNN control": 1.94, "call": "inactive"}
{"target": "TAS2R3 (GeneID 50831)", "siRNA no.": 3, "G2 robust z-score": 0.0727, "G2 cells, % of GMNN control": 3.48, "call": "inactive"}
{"target": "CRYBG2 (GeneID 55057)", "siRNA no.": 1, "G2 robust z-score": -0.712, "G2 cells, % of GMNN control": -2.04, "call": "inactive"}
{"target": "CRYBG2 (GeneID 55057)", "siRNA no.": 2, "G2 robust z-score": -0.574, "G2 cells, % of GMNN control": -1.07, "call": "inactive"}
{"target": "CRYBG2 (GeneID 55057)", "siRNA no.": 3, "G2 robust z-score": -0.987, "G2 cells, % of GMNN control": -3.98, "call": "inactive"}
{"target": "SNX15 (GeneID 29907)", "siRNA no.": 1, "G2 robust z-score": -0.66, "G2 cells, % of GMNN control": -1.67, "call": "inactive"}
{"target": "SNX15 (GeneID 29907)", "siRNA no.": 2, "G2 robust z-score": -0.564, "G2 cells, % of GMNN control": -0.999, "call": "inactive"}
{"target": "SNX15 (GeneID 29907)", "siRNA no.": 3, "G2 robust z-score": 3.25, "G2 cells, % of GMNN control": 25.8, "call": "inactive"}

A stretch of the results above, for reference:
{"target": "CRYBG2 (GeneID 55057)", "siRNA no.": 3, "G2 robust z-score": -0.987, "G2 cells, % of GMNN control": -3.98, "call": "inactive"}
{"target": "SNX15 (GeneID 29907)", "siRNA no.": 1, "G2 robust z-score": -0.66, "G2 cells, % of GMNN control": -1.67, "call": "inactive"}

The list goes on.
{"target": "CD2AP (GeneID 23607)", "siRNA no.": 1, "G2 robust z-score": -0.661, "G2 cells, % of GMNN control": -1.68, "call": "inactive"}
{"target": "CD2AP (GeneID 23607)", "siRNA no.": 2, "G2 robust z-score": -0.693, "G2 cells, % of GMNN control": -1.91, "call": "inactive"}
{"target": "CD2AP (GeneID 23607)", "siRNA no.": 3, "G2 robust z-score": 1.21, "G2 cells, % of GMNN control": 11.4, "call": "inactive"}
{"target": "SLITRK6 (GeneID 84189)", "siRNA no.": 1, "G2 robust z-score": 1.79, "G2 cells, % of GMNN control": 15.6, "call": "inactive"}
{"target": "SLITRK6 (GeneID 84189)", "siRNA no.": 2, "G2 robust z-score": -0.364, "G2 cells, % of GMNN control": 0.408, "call": "inactive"}
{"target": "SLITRK6 (GeneID 84189)", "siRNA no.": 3, "G2 robust z-score": 0.707, "G2 cells, % of GMNN control": 7.94, "call": "inactive"}
{"target": "FFAR4 (GeneID 338557)", "siRNA no.": 1, "G2 robust z-score": -1.03, "G2 cells, % of GMNN control": -4.29, "call": "inactive"}
{"target": "FFAR4 (GeneID 338557)", "siRNA no.": 2, "G2 robust z-score": 0.648, "G2 cells, % of GMNN control": 7.52, "call": "inactive"}
{"target": "FFAR4 (GeneID 338557)", "siRNA no.": 3, "G2 robust z-score": -0.854, "G2 cells, % of GMNN control": -3.04, "call": "inactive"}
{"target": "NAA40 (GeneID 79829)", "siRNA no.": 1, "G2 robust z-score": 2.51, "G2 cells, % of GMNN control": 20.6, "call": "inactive"}
{"target": "NAA40 (GeneID 79829)", "siRNA no.": 2, "G2 robust z-score": -0.674, "G2 cells, % of GMNN control": -1.77, "call": "inactive"}
{"target": "NAA40 (GeneID 79829)", "siRNA no.": 3, "G2 robust z-score": 9.09, "G2 cells, % of GMNN control": 66.9, "call": "active"}
